Test results: patent publication US20150148235A1, “HERBICIDE-RESISTANT SUNFLOWER PLANTS WITH MULTIPLE HERBICIDE RESISTANT ALLELES OF AHASL1 AND METHODS OF USE” (NIDERA S.A., priority 2013, published 2015)
The amount applied is not stated for every result.

Tested on: sunflower hybrids (A122T homozygous, A122T/A205V, A122T/WT, A205V checks)
Experiment: Multi-location field evaluation of the A122T trait, crop injury versus A205V checks, Example 9
Type: in vivo, Helianthus annuus
[1] = A122T homozygous hybrids (CLHA-Plus homozygous)
[2] = A122T/A205V heterozygous hybrids (CLHA-Plus/IMISUN)
[3] = A122T/WT heterozygous hybrids (CLHA-Plus/WT)

SMILES | slope b of regression of crop injury (PI) on mean PI of A205V checks [1] | slope b of regression of crop injury (PI) on mean PI of A205V checks [2] | slope b of regression of crop injury (PI) on mean PI of A205V checks [3] | y-intercept a of regression of crop injury (PI) on mean PI of A205V checks (A122T/WT heterozygous hybrids)
CC(C)C1(C)N=C(c2ncccc2C(=O)O)NC1=O (stereo not shown) [imazapyr] | 0.20±0.06 | 0.26±0.07 | 0.55±0.18 | –
COCc1cnc(C2=NC(C)(C(C)C)C(=O)N2)c(C(=O)O)c1 (stereo not shown) [imazamox] | 0.149±0.0667 | 1.39±0.05 | 0.45±0.062 | 15.3±2.67
